# Some entries share one result that the patent states for a list of compounds.
# System: mice with immunosuppression induced by cyclophosphamide
# Experiment: Immune stimulatory effects on mice with immunosuppression induced by cyclophosphamide
# Assay type: in vivo
# Details: filgrastim 50 μg/kg
# Experimental: The adult human dosage of Ziptamin is 0.5-1 bottle/day×250 ml/bottle A normal adult weighs about 60 kg→Mouse dose of Ziptamin: Dmouse=(0.5*250*11.76)/60=25 ml/kg and Dmouse=(1*250*11.76)/60=50 ml/kg. The dose conversion factor from adults to mice is 11.76 according to the Guidelines for preclinical and clinical testing of traditional medicine, herbal medicine issued by the Department of Science, Technology and Training-Ministry of Health under Decision No. 141/QD-K2DT dated 27 Oct. 2015.
# Healthy male mice, after stable housing, were randomly divided into 5 groups, each with 8 mice: • Group 1 (Physiological): Mice were given distilled water; • Group 2 (Disease control): Mice were given distilled water; • Group 3 (Control): Mice were injected […] with filgrastim at a dose of 50 μg/kg; • Group 4 (Test group): Mice were given Ziptamin at a dose of 25 ml/kg, divided into 2 doses/day 4 hours apart; • Group 5 (Test group): Mice were given Ziptamin at a dose of 50 ml/kg, divided into 2 doses/day 4 hours apart; • Group 1 (physiological) were injected intraperitoneally with 0.9% NaCl, volume 10 ml/kg. Mice from groups 2 to 5 were injected intraperitoneally with CYP (dissolved in 0.9% NaCl) at a single dose of 150 mg/kg on day 1, injection volume 10 ml/kg. […] Mice in the test groups were recorded for weight daily before administering distilled water, test sample, or medication. […]
molecule,measurement,setting,value
"filgrastim (protein, UniProt P09919 31-207, looked up, filgrastim) Granulocyte …: TPLGPASSLPQSFLLKCLEQVRKIQGDGAALQEKLVSECATYKLCHPEELVLLGHSLGIPWAPLSSCPSQALQLAGCLSQLHSGLFLYQGLLQALEGISPELGPTLDTLQLDVADFATTIWQQMEELGMAPALQPTQGAMPAFASAFQRRAGGVLVASHLQSFLEVSYRVLRHLAQP",body weight decrease,CYP-immunosuppressed mice,0.5 to 2 g/day
same,increase in the relative weight of the spleen compared to the disease control group,"end of the experiment, p>0.05",0.01-0.02

# — patent publication US20240299464A1, “BOTANICAL COMPOUNDS, METHODS, AND PROCEDURES FOR MEDICINAL TREATMENT RELATED TO IMMUNOINFLAMMATION, NEUROINFLAMMATION, DEPRESSION, MEMORY, FOCUS, AND NERVE DEGENERATION” (priority 2023, published 2024)
